Measurements taken from publication PMC9731985.
No constants are given. Whether binding was seen depends on the method and setting. Binding seen in cells or lysates may run through a third protein. Some entries that bind do so weakly or less than the wild type.

Biological target: FLAG-p62 (human) (UniProt Q13501)
Assay: co-IP; Hep3B cells transfected with FLAG-p62; lysates immunoprecipitated with an anti-FLAG antibody; immunoblotting with anti-FLAG, anti-Hsc70 and anti-Parkin antibodies

Row | binding | Substance
1 | binds | endogenous Parkin (from UniProt O60260-1 1-465) (enzyme)
2 | binds | heat shock cognate 71 kDa protein (Hsc70) (from UniProt P11142-1 1-646)
